These results are taken from patent US12319742.

By UniProt entry, the sequences of proteins in these tests, tags left out. Where a name states a change or a piece, a line headed by the entry shows the natural chain unless it says otherwise.
UniProt Q93038: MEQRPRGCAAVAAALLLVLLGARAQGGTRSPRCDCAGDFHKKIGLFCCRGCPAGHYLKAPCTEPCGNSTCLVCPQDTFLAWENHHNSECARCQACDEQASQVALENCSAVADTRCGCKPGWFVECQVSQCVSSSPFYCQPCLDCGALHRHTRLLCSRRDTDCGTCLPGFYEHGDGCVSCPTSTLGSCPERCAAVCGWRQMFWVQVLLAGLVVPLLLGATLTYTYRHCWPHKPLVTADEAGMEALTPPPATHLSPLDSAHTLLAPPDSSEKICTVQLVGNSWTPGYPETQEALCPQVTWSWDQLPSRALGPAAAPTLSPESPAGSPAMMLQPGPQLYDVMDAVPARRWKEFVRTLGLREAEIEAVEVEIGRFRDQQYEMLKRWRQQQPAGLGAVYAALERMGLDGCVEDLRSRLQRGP

Assay [1] deals with human TNFRSF25 over-expressed on CHOK1 cells (cDNA sequence NP_683866) (human) (UniProt Q93038). As to the kind of experiment: flow cytometry on CHOK1-TNFRSF25+ cells (lower panel), 1 h at 4 C, APC anti-human Fc.
For assay [2] the target is unchanged. As to the kind of experiment: flow cytometry on CHOK1-TNFRSF25+ cells. (In general: In flow cytometry, cells or beads pass a laser one at a time.)
For assay [3] the target is unchanged. As to the kind of experiment: flow cytometry on CHOK1-TNFRSF25+ cells (upper panel), 1 h at 4 C, APC anti-human Fc.

No constants are given. Whether binding was seen depends on the method and setting. Binding calls can cover weak binding; strength is not graded here.

B1: SL-061mut213 (antibody, human IgG1, kappa, V domains shown)
VH: QVQLQQSGPGLVKPSQTLSLTCAISGDSVSSYSAAWNWIRQSPSRGLEWLGRTYYRSKWFNDYAVSVKSRITINPDTSKNQFSLQLNSVTPEDTAVYYCARDYYGSESYYNRGYYYYGLDVWGQGTTVTVSS
VL: AIQLTQSPSSLSASVGDRVTITCRASPSISSALAWYQQKPGKAPKLLMYDESSQEGSVPSRFSGSGSGTDFTLTISSLQPEDFATYYCQQFNEYPLTFGGGTKVEIKR
B1: the binding result in assay [1] is “binds”.

B2: NH46 (whole antibody) (antibody, human IgG1, kappa, V domains shown)
VH: QVQLVQSGSEVKKPGASVRVSCKVSGSTVKELSMHWVRQAPGKGLEWMGGYDPEDGESIFAQKFQGRVNMTEDRSTDTAYMELSSLRSEDTAVYYCATDLNWEDAFDVWGQGTMVTVSS
VL: QSVLTQPPSVSAAPGQKVTISCSGSGSNIGNYYVAWYQQFPGTAPKLLIYDNNKRPSGIPDRFSGSKSGTSATLGITGLQTGDEADYYCGTWDTSLTAGDIYVFGTGTKVTVLR
B2: the binding result in assay [2] and in assay [3] was “binds” throughout.

B3: NH24 (whole antibody) (antibody, human IgG1, kappa, V domains shown)
VH: EVQLVESGGGSVQPGGSLRLSCAASGFTFSSYGMSWIRQAPGKGLEWISYISSSGGHTYYADSVKGRFTISRDNAKNSLYLQMNSLRAEDTAVYYCARGSGSFDYWGQGTLVTVSS
VL: DIVMTQSPSSLSASVGDRVTITCQASQDITNYLSWYQQKPGKAPKLLISDASNLETGIPSRFSGSGSGTDFTFTISSLQPEDIATYYCQQYDTLPITFGQGTRLEIKR
Consider B3, for which the binding result in assay [2] and in assay [3] was “binds” throughout.
